Reference: paper PMC5302063, “In vivo mapping of a dynamic ribonucleoprotein granule interactome in early Drosophila embryos” (FEBS Open Bio, 2016)
No constants are given. Whether binding was seen depends on the method and setting. In cells and extracts the contact can be indirect. These calls come from enrichment with a bait or labelling near it, and not all partners need be listed. For part of these data: Where a sequence is shown, tags or fusion partners need not be part of it. Each block holds one molecule with its values, some of them ahead of it.

Amino acid sequences for entries named in this document (tags omitted).
UniProt P07487: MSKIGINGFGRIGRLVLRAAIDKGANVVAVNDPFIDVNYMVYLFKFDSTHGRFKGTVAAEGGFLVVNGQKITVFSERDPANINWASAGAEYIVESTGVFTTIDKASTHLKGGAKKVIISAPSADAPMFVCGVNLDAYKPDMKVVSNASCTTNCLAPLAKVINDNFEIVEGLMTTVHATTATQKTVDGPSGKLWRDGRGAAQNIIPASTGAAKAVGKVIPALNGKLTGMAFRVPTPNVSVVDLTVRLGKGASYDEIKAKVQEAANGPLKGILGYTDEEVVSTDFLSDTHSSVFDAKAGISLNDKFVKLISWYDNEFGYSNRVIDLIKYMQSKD
UniProt P15007: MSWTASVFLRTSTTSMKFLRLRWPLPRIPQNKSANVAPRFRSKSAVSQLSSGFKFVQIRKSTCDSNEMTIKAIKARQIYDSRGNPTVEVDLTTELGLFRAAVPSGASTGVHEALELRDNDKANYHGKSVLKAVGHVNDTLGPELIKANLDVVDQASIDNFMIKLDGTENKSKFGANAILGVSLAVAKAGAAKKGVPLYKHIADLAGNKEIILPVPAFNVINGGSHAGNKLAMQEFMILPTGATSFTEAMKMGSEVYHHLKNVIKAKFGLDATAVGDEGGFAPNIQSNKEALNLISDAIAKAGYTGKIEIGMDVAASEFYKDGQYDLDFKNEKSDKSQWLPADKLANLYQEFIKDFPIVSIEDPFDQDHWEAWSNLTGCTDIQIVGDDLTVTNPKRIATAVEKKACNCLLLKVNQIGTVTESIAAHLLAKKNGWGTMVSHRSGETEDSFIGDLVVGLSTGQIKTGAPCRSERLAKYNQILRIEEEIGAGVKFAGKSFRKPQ
UniProt P37276: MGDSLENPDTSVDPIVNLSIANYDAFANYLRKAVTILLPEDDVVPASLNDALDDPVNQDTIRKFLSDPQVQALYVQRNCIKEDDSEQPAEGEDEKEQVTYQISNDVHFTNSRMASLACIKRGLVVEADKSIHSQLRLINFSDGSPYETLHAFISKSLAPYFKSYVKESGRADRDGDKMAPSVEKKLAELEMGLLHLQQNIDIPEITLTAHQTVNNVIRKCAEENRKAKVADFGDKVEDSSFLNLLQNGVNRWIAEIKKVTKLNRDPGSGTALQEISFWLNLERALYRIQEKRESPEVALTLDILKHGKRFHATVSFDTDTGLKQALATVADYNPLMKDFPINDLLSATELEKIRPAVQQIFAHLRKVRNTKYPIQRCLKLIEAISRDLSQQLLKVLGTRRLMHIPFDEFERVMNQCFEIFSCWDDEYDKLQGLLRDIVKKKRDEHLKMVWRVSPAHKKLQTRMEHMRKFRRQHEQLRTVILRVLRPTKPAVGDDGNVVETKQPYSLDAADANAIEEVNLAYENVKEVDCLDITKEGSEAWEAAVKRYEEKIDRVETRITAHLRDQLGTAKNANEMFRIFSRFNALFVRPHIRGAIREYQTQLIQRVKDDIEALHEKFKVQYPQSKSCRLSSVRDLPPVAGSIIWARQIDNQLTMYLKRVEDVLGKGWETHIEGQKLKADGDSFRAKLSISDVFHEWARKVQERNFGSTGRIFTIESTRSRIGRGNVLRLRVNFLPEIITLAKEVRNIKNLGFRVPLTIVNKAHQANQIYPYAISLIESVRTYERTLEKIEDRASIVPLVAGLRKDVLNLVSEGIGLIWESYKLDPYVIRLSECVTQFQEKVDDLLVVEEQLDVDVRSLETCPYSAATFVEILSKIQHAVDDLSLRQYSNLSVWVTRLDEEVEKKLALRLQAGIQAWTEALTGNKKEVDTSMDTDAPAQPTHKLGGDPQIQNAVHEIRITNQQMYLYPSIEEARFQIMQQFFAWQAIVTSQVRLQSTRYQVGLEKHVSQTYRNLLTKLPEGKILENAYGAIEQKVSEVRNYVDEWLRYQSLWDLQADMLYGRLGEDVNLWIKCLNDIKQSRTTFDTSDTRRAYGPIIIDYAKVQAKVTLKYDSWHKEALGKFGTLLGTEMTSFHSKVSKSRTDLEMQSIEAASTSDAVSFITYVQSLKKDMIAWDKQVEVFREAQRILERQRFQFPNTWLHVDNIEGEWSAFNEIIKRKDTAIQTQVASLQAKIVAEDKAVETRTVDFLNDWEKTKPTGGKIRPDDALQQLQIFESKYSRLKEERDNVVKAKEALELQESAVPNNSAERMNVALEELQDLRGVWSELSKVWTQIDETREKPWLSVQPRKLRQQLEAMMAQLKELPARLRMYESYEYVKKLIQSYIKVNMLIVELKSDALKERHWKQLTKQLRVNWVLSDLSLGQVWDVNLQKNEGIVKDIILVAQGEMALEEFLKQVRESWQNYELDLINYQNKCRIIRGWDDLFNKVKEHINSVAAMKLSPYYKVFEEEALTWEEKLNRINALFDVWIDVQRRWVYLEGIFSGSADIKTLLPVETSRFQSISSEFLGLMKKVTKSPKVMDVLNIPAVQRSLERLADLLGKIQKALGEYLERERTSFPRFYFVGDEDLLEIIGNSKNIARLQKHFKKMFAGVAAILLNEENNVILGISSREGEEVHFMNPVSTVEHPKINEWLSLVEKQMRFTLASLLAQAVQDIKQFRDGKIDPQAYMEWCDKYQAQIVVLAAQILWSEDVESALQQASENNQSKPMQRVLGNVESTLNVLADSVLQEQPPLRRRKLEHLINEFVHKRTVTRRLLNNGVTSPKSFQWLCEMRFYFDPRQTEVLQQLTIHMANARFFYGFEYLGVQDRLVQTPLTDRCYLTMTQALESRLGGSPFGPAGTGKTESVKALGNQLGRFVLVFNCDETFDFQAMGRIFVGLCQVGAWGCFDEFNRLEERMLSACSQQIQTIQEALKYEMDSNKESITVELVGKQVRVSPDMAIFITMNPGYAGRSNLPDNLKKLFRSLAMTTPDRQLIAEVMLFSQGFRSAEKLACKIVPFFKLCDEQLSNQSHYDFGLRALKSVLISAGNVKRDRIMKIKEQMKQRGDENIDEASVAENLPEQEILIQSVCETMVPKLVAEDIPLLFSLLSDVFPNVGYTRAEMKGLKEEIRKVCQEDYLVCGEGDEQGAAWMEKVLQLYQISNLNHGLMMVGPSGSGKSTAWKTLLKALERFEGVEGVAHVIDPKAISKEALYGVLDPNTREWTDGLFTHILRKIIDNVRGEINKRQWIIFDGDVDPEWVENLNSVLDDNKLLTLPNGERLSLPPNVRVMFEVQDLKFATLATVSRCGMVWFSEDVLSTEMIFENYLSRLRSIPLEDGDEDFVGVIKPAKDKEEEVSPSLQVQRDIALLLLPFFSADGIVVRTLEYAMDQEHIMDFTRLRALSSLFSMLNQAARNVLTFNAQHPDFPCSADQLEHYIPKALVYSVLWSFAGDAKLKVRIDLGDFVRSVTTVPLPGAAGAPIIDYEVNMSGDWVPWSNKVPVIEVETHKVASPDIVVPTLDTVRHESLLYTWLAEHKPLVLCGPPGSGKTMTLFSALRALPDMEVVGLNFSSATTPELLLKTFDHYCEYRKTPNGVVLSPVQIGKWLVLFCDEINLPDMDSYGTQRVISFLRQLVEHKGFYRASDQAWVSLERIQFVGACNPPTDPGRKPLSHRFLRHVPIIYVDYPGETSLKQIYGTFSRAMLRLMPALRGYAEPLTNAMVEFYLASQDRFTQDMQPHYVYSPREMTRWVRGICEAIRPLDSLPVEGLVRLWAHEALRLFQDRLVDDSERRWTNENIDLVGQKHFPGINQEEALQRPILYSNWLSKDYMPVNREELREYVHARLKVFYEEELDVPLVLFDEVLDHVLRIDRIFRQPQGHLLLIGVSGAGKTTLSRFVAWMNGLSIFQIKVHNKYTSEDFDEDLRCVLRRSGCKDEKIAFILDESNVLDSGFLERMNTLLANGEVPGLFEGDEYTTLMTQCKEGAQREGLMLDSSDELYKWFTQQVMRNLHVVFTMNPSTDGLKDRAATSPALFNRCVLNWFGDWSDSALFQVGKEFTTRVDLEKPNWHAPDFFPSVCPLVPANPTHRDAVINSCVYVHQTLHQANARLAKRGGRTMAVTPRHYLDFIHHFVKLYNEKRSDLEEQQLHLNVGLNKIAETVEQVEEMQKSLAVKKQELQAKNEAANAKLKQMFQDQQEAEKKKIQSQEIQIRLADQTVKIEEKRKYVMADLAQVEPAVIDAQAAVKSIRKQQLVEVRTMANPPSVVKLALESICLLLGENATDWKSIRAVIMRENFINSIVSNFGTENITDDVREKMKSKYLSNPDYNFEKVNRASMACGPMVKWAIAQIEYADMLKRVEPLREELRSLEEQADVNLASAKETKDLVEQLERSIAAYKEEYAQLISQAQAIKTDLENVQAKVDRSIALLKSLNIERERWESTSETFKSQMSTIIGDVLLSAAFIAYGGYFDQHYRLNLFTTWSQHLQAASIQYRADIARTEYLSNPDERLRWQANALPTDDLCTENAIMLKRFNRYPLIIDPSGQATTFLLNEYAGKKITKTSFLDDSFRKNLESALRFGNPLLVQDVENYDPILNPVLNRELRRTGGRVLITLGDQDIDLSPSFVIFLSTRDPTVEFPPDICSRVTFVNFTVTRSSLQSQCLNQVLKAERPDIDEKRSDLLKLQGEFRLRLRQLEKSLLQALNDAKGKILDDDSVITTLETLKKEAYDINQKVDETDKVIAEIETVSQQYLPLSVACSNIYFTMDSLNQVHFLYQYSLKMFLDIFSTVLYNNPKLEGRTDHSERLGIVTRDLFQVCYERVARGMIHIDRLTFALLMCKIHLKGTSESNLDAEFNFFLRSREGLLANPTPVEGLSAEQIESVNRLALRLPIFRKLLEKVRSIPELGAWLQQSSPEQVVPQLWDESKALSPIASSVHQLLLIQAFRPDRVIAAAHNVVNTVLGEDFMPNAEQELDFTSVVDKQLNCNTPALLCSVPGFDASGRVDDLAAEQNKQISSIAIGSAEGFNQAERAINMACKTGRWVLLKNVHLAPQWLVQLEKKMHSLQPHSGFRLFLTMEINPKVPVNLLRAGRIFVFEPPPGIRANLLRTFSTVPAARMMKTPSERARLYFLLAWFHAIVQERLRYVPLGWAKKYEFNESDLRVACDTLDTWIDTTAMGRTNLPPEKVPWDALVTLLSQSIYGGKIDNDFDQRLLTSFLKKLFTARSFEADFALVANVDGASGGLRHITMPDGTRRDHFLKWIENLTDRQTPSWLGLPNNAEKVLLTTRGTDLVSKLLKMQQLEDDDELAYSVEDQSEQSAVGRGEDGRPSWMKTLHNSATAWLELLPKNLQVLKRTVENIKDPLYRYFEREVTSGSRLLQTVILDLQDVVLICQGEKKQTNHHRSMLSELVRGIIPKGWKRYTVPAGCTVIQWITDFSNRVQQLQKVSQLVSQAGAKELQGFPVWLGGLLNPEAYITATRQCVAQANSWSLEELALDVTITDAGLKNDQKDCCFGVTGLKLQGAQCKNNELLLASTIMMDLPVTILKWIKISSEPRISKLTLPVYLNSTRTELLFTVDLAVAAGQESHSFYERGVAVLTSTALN
UniProt P17210: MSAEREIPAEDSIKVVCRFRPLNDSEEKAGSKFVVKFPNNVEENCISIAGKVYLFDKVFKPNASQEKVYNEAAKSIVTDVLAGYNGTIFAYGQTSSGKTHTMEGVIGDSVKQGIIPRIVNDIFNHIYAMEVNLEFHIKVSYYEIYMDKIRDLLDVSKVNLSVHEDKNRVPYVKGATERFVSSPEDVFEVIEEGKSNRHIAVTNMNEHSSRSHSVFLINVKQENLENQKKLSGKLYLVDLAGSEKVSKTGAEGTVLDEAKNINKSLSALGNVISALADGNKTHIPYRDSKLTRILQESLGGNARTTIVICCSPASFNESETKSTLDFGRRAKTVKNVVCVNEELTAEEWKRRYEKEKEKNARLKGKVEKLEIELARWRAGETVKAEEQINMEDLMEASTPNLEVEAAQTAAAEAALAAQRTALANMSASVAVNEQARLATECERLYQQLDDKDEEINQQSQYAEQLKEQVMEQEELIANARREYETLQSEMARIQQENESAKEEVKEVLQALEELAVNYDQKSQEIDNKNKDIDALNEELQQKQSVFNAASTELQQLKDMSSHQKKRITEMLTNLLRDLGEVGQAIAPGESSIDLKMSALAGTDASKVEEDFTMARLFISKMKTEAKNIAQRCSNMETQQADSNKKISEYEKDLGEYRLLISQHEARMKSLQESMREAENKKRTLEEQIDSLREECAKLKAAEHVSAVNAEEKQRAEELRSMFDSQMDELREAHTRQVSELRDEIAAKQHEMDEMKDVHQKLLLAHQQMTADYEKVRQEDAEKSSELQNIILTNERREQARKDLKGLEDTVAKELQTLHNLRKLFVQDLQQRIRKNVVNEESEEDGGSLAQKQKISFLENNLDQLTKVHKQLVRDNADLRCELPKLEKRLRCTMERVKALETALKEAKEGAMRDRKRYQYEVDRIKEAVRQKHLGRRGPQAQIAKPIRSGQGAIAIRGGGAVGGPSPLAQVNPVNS

Tests used:
[1] = molecular target: functional full-length HA-tagged Tudor (Drosophila) (UniProt P25823); assay: cross-linking + affinity purification with mass spectrometry; in vivo crosslinking of 0-1 h embryos expressing HA-Tud or GFP-Aub with 0.2% formaldehyde (10 min); immunoprecipitation on anti-HA or anti-GFP agarose beads in 0.5 M urea, 0.01% SDS, 2% Triton X-100; washes with 1 M NaCl, 1% IGEPAL …; crosslinked complexes purified on SDS/PAGE step gels; LC-MS/MS; HA-tagged GFP as negative control
[2] = molecular target: T1, functional GFP-tagged Aubergine (Drosophila) (UniProt O76922); assay: as above
T1 sequence: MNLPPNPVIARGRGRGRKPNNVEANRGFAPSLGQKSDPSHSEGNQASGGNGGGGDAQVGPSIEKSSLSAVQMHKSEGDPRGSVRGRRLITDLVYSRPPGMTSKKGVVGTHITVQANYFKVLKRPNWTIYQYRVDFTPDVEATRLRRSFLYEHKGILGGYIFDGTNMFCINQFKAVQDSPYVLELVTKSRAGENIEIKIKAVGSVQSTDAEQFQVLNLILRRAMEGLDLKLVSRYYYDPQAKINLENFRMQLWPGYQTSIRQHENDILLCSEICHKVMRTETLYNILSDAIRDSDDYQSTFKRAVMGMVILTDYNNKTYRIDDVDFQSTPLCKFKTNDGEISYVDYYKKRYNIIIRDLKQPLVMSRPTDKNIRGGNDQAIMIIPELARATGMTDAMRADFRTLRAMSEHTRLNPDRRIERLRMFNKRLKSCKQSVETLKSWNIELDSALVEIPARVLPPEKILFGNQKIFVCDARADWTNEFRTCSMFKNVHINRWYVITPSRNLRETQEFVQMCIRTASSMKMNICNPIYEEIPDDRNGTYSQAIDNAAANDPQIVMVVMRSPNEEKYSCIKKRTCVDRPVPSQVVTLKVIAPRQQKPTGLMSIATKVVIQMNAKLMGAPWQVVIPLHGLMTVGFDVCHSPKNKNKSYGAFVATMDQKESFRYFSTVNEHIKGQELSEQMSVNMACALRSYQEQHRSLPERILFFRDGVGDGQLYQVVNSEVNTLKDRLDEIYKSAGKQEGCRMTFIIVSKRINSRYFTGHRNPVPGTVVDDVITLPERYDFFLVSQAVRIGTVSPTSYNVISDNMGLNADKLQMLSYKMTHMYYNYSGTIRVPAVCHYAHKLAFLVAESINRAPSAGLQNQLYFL

[3] = molecular target: T1, functional GFP-tagged Aubergine (Drosophila); assay: cross-linking + affinity purification with mass spectrometry; GFP-Aub-expressing embryo lysates crosslinked in vitro with BM(PEG)3 (300 ug/mL); immunoprecipitation in PBS with 0.5 M urea, 0.01% SDS, 2% Triton X-100, 10% glycerol; gel-purified; mass spectrometry

Molecule: Pyruvate kinase (from UniProt O62619 1-533) (enzyme)
- binding [1]: binds
- binding [2]: binds
- binding [3]: binds

Molecule: glyceraldehyde-3-phosphate dehydrogenase 2 (from UniProt P07487 1-332) (enzyme)
- binding [1]: binds
- binding [2]: binds
- binding [3]: binds

B1: maternal expression at 31B (enzyme, UniProt P23128 1-459)
chain: MMTEKLNSGHTNLTSKGIINDLQIAGNTSDDMGWKSKLKLPPKDNRFKTTDVTDTRGNEFEEFCLKRELLMGIFEKGWERPSPIQEAAIPIALSGKDVLARAKNGTGKTGAYCIPVLEQIDPTKDYIQALVMVPTRELALQTSQICIELAKHLDIRVMVTTGGTILKDDILRIYQKVQLIIATPGRILDLMDKKVADMSHCRILVLDEADKLLSLDFQGMLDHVILKLPKDPQILLFSATFPLTVKNFMEKHLREPYEINLMEELTLKGVTQYYAFVQERQKVHCLNTLFSKLQINQSIIFCNSTQRVELLAKKITELGYCCYYIHAKMAQAHRNRVFHDFRQGLCRNLVCSDLFTRGIDVQAVNVVINFDFPRMAETYLHRIGRSGRFGHLGIAINLITYEDRFDLHRIEKELGTEIKPIPKVIDPALYVANVGASVGDTCNNSDLNNSANEEGNVSK
- binding [1]: binds
- binding [2]: binds
- binding [3]: binds

Second part, the molecule after the results:

- binding [1]: binds
- binding [2]: binds
- binding [3]: binds
Molecule: Enolase (from UniProt P15007 1-500) (enzyme)

- binding [1]: binds
- binding [2]: binds
- binding [3]: binds
Molecule: dynein heavy chain 64C (from UniProt P37276 1-4639)

- binding [1]: binds
- binding [2]: binds
- binding [3]: binds
Molecule: eukaryotic translation initiation factor 4A (endogenous) (from UniProt Q02748 1-403) (enzyme)

- binding [1]: binds
- binding [2]: binds
- binding [3]: binds
Molecule: kinesin heavy chain (from UniProt P17210 1-975)
